{"source": "the supplement of paper PMC8728848", "binders": {"B1": {"name": "Epa20 (Candida glabrata) (protein)", "chain": "MGSSHHHHHHSSGLVPRGSHMASSNIPNNYPLGCSNKYSGHLPGLKMELYSYNYVNPRHPDPQNPGKLDQLYDPNLLGTYECFDSSYKDINYPRVGYKSKTLIGRSDGVSGILNFNFVPPWGCMPQKGQLPPAYNFKSNITLSNFTMILFGYFKPKISGNHIFSLHGDDLIYLNFGAGNAFDCCRQESSADNFGNYQAFSLWGINWEKKTLTVYLDMNTYYPIRIFYNNRDYQAIFNFSFKTEFDSSPVIDFQDYFFFLRDIDGGCPGEV"}}, "test_in_all_cases": "glycan array binding signal (z-score within array); higher = stronger binding", "conditions_in_all_cases": "glycan notation: IUPAC condensed, linker removed", "key": {"[1]": {"target": "Fuc(a1-2)Gal(b1-4)GlcNAc(b1-3)Gal(b1-4)GlcNAc(b1-2)Man(a1-3)[Fuc(a1-2)Gal(b1-4)GlcNAc(b1-3)Gal(b1-4)GlcNAc(b1-2)Man(a1-6)]Man(b1-4)GlcNAc(b1-4)GlcNAc", "method_in_brief": "(§1)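 Arrays were curated from the Consortium for Functional Glycomics database, 3228 in total, and kept only where the protein sequence was available. Binding is expressed as a within-array Z-score. This score was averaged across arrays of the same protein sequence at different concentrations or buffers and across linkers, and negative values can be read as non-binding.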"}, "[2]": {"target": "Fuc(a1-2)Gal(b1-4)GlcNAc(b1-3)Gal(b1-4)GlcNAc(b1-3)Gal(b1-4)GlcNAc", "method_in_brief": "as §1"}, "[3]": {"target": "Fuc(a1-2)Gal(b1-4)GlcNAc(b1-3)GalNAc", "method_in_brief": "as §1"}, "[4]": {"target": "Fuc(a1-2)Gal(b1-4)GlcNAc(b1-3)[Fuc(a1-2)Gal(b1-4)GlcNAc(b1-6)]GalNAc", "method_in_brief": "as §1"}, "[5]": {"target": "Fuc(a1-2)Gal(b1-4)GlcNAc(b1-3)[Fuc(a1-3)[Gal(b1-4)]GlcNAc(b1-6)]Gal(b1-4)Glc", "method_in_brief": "as §1"}, "[6]": {"target": "Fuc(a1-2)Gal(b1-4)GlcNAc(b1-6)GalNAc", "method_in_brief": "as §1"}, "[7]": {"target": "Fuc(a1-2)Gal(b1-4)GlcNAc6S", "method_in_brief": "as §1"}, "[8]": {"target": "Fuc(a1-2)Gal(b1-4)[Fuc(a1-3)]GlcNAc", "method_in_brief": "as §1"}, "[9]": {"target": "Fuc(a1-2)Gal(b1-4)[Fuc(a1-3)]GlcNAc(b1-2)Man(a1-3)[Fuc(a1-2)Gal(b1-4)[Fuc(a1-3)]GlcNAc(b1-2)Man(a1-6)]Man(b1-4)GlcNAc(b1-4)[Fuc(a1-6)]GlcNAc", "method_in_brief": "as §1"}, "[10]": {"target": "Fuc(a1-2)Gal(b1-4)[Fuc(a1-3)]GlcNAc(b1-2)[Fuc(a1-2)Gal(b1-4)[Fuc(a1-3)]GlcNAc(b1-4)]Man(a1-3)[Fuc(a1-2)Gal(b1-4)[Fuc(a1-3)]GlcNAc(b1-2)Man(a1-6)]Man(b1-4)GlcNAc(b1-4)GlcNAc", "method_in_brief": "as §1"}, "[11]": {"target": "Fuc(a1-2)Gal(b1-4)[Fuc(a1-3)]GlcNAc(b1-3)Gal(b1-4)[Fuc(a1-3)]GlcNAc", "method_in_brief": "as §1"}, "[12]": {"target": "Fuc(a1-2)Gal(b1-4)[Fuc(a1-3)]GlcNAc(b1-3)Gal(b1-4)[Fuc(a1-3)]GlcNAc(b1-3)Gal(b1-4)[Fuc(a1-3)]GlcNAc", "method_in_brief": "as §1"}, "[13]": {"target": "Fuc(a1-2)Gal(b1-4)[Fuc(a1-3)]GlcNAc(b1-3)GalNAc", "method_in_brief": "as §1"}, "[14]": {"target": "Fuc(a1-2)Gal(b1-4)[Fuc(a1-3)]GlcNAc(b1-3)[Neu5Ac(a2-6)Gal(b1-4)GlcNAc(b1-6)]Gal(b1-4)Glc", "method_in_brief": "as §1"}, "[15]": {"target": "Fuc(a1-2)Gal3S(b1-4)GlcNAc", "method_in_brief": "as §1"}, "[16]": {"target": "Fuc(a1-2)Gal6S(b1-3)GlcNAc", "method_in_brief": "as §1"}, "[17]": {"target": "Fuc(a1-2)Gal6S(b1-3)GlcNAc6S", "method_in_brief": "as §1"}, "Fuc(a1-2)Gal6S(b1-4)Glc": {"target": "Fuc(a1-2)Gal6S(b1-4)Glc", "method_in_brief": "as §1"}, "[18]": {"target": "Fuc(a1-2)Gal6S(b1-4)Glc6S", "method_in_brief": "as §1"}, "Fuc(a1-2)[Gal(a1-3)]Gal": {"target": "Fuc(a1-2)[Gal(a1-3)]Gal", "method_in_brief": "as §1"}, "[19]": {"target": "Fuc(a1-2)[Gal(a1-3)]Gal(b1-3)GalNAc", "method_in_brief": "as §1"}, "[20]": {"target": "Fuc(a1-2)[Gal(a1-3)]Gal(b1-3)GalNAc(b1-3)Gal(a1-4)Gal(b1-4)Glc", "method_in_brief": "as §1"}, "[21]": {"target": "Fuc(a1-2)[Gal(a1-3)]Gal(b1-3)GlcNAc", "method_in_brief": "as §1"}, "[22]": {"target": "Fuc(a1-2)[Gal(a1-3)]Gal(b1-3)GlcNAc(b1-2)Man(a1-3)[Fuc(a1-2)[Gal(a1-3)]Gal(b1-3)GlcNAc(b1-2)Man(a1-6)]Man(b1-4)GlcNAc(b1-4)GlcNAc", "method_in_brief": "as §1"}, "[23]": {"target": "Fuc(a1-2)[Gal(a1-3)]Gal(b1-3)GlcNAc(b1-2)Man(a1-3)[Fuc(a1-2)[Gal(a1-3)]Gal(b1-3)GlcNAc(b1-2)Man(a1-6)]Man(b1-4)GlcNAc(b1-4)[Fuc(a1-6)]GlcNAc", "method_in_brief": "as §1"}, "[24]": {"target": "Fuc(a1-2)[Gal(a1-3)]Gal(b1-3)GlcNAc(b1-3)GalNAc", "method_in_brief": "as §1"}, "[25]": {"target": "Fuc(a1-2)[Gal(a1-3)]Gal(b1-3)GlcNAc(b1-6)GalNAc", "method_in_brief": "as §1"}, "[26]": {"target": "Fuc(a1-2)[Gal(a1-3)]Gal(b1-4)Glc", "method_in_brief": "as §1"}, "[27]": {"target": "Fuc(a1-2)[Gal(a1-3)]Gal(b1-4)GlcNAc", "method_in_brief": "as §1"}, "[28]": {"target": "Fuc(a1-2)[Gal(a1-3)]Gal(b1-4)GlcNAc(b1-2)Man", "method_in_brief": "as §1"}}, "note": "The other results are listed elsewhere or left out."}
{"binder": "B1", "values": [{"measurement": "glycan array binding signal (z-score)", "setting": "[1]", "result": -0.254}, {"measurement": "glycan array binding signal (z-score)", "setting": "[2]", "result": -0.44}, {"measurement": "glycan array binding signal (z-score)", "setting": "[3]", "result": -0.072}, {"measurement": "glycan array binding signal (z-score)", "setting": "[4]", "result": 0.324}, {"measurement": "glycan array binding signal (z-score)", "setting": "[5]", "result": -0.807}, {"measurement": "glycan array binding signal (z-score)", "setting": "[6]", "result": 0.81}, {"measurement": "glycan array binding signal (z-score)", "setting": "[7]", "result": -0.623}, {"measurement": "glycan array binding signal (z-score)", "setting": "[8]", "result": -0.496}, {"measurement": "glycan array binding signal (z-score)", "setting": "[9]", "result": -0.521}, {"measurement": "glycan array binding signal (z-score)", "setting": "[10]", "result": 0.267}, {"measurement": "glycan array binding signal (z-score)", "setting": "[11]", "result": -0.331}, {"measurement": "glycan array binding signal (z-score)", "setting": "[12]", "result": -0.389}, {"measurement": "glycan array binding signal (z-score)", "setting": "[13]", "result": 4.96}, {"measurement": "glycan array binding signal (z-score)", "setting": "[14]", "result": -0.528}, {"measurement": "glycan array binding signal (z-score)", "setting": "[15]", "result": -0.566}, {"measurement": "glycan array binding signal (z-score)", "setting": "[16]", "result": -0.604}, {"measurement": "glycan array binding signal (z-score)", "setting": "[17]", "result": 0.538}, {"measurement": "glycan array binding signal (z-score)", "setting": "Fuc(a1-2)Gal6S(b1-4)Glc", "result": -0.005}, {"measurement": "glycan array binding signal (z-score)", "setting": "[18]", "result": -0.642}, {"measurement": "glycan array binding signal (z-score)", "setting": "Fuc(a1-2)[Gal(a1-3)]Gal", "result": -0.6}, {"measurement": "glycan array binding signal (z-score)", "setting": "[19]", "result": -0.104}, {"measurement": "glycan array binding signal (z-score)", "setting": "[20]", "result": -0.067}, {"measurement": "glycan array binding signal (z-score)", "setting": "[21]", "result": -0.248}, {"measurement": "glycan array binding signal (z-score)", "setting": "[22]", "result": -0.338}, {"measurement": "glycan array binding signal (z-score)", "setting": "[23]", "result": 0.072}, {"measurement": "glycan array binding signal (z-score)", "setting": "[24]", "result": -0.37}, {"measurement": "glycan array binding signal (z-score)", "setting": "[25]", "result": -0.365}, {"measurement": "glycan array binding signal (z-score)", "setting": "[26]", "result": -0.254}, {"measurement": "glycan array binding signal (z-score)", "setting": "[27]", "result": -0.542}, {"measurement": "glycan array binding signal (z-score)", "setting": "[28]", "result": -0.574}]}
